The list shows a part of the results.

The assay deals with T1, OsSMF1 (Oryza sativa, UniProt Q6ZLB0 1-436).
T1 sequence: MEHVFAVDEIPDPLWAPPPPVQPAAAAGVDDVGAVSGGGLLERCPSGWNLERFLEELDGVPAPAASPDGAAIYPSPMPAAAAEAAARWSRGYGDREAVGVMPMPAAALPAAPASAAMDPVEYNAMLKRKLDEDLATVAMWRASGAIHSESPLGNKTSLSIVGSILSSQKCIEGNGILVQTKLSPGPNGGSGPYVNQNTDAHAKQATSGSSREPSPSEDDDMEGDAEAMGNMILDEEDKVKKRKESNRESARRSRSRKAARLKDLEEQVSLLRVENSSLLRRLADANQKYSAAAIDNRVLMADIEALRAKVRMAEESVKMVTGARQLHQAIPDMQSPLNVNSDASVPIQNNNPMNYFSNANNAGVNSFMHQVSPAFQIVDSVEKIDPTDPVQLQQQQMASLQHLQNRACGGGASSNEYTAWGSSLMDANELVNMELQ
In words: protein-binding microarray (RPBM); PBS, 2% BSA, 51.3 ng/ul salmon testes DNA, 50 uM zinc acetate, 200 nM TF, 25 C, 1 h; high values mean tight binding. Particulars: protein: recombinant; tags: N-terminal polyhistidine and DsRed monomer fusion (pET32a); chain copies: 2; label: CyDye5-dUTP incorporated in the synthesized complementary strand; 3' TTTTT single-stranded linker to array surface; dsDNA, one strand shown. The procedure, abridged: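 Per-feature fluorescence intensity (arbitrary units), read on an Axon 4000B scanner, is the binding signal. Transcription factors carrying an N-terminal polyhistidine tag and DsRed fusion were expressed in E. coli BL21-CodonPlus and purified on Ni–NTA. A custom Agilent array, made double-stranded by primer extension with Cy5-dUTP and blocked with 2% BSA, was incubated with 200 nM protein in PBS, 2% BSA, salmon testes DNA and 50 µM zinc acetate at 25 °C for 1 h and then washed.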
“CAGCCAAACCCCACGCCACGCACACACACACCCATCTCTCCGGAGTCACCTAGTGCAG”: the binding signal was 5580 fluorescence intensity (a.u.).
With “CTTCCCTACGACATCGAGGGCGTCATCGAGTGAGTAGTGTCGGAGTCACCTAGTGCAG” the figure was 3610 fluorescence intensity (a.u.).
To “GCTCCCTCGACGACCTCGTCAAGTCCCTCCGCGCCGACCCCGGAGTCACCTAGTGCAG” belongs 4170 fluorescence intensity (a.u.).
With “CCCCGCCGACCCCGCCGCCGCCCGCTGCTCCTTCGACCAGCGGAGTCACCTAGTGCAG” the figure was 3150 fluorescence intensity (a.u.); with “GCAACCACCAGCTGACAGGGCGTTTTCTCACGTCGCATTTCGGAGTCACCTAGTGCAG”, 4440 fluorescence intensity (a.u.); with “CCAGCCGCGCGCGCGCACGCACGCCGCCGTCGTGACGTCGCGGAGTCACCTAGTGCAG”, 3780 fluorescence intensity (a.u.).
On to “GCCACCTCGCATCGCCGTGCCTGATGTTGCCATCGTGTTGCGGAGTCACCTAGTGCAG”, for which the binding signal was 4450 fluorescence intensity (a.u.).
To “AACCCTAAGCCTCACCTATATAATGCTCCACCACGCCGCCCGGAGTCACCTAGTGCAG” belongs 4360 fluorescence intensity (a.u.).
For “AGCCGTCCGATCGTCCGCCACGTCATCGATCCGCGTGACTCGGAGTCACCTAGTGCAG”, the binding signal was 27100 fluorescence intensity (a.u.).
To “GATTGTTATGTCACTTGTCTGTGGATCAAGTCTCAAGCCCCGGAGTCACCTAGTGCAG” belongs 3560 fluorescence intensity (a.u.).
With “AATACCCTCCTCTCGCCTCGCGAAACCCCAGAACCACGCCCGGAGTCACCTAGTGCAG” the figure was 3650 fluorescence intensity (a.u.).
For the sequence “TTTGTCTCGCAATTTACACGTAAACTGTGTCATTGATTTTCGGAGTCACCTAGTGCAG”, the binding signal was 4260 fluorescence intensity (a.u.).
To “TTATATCCAGATCACATCTAGTATTAGGCTGTGTTCGGCGCGGAGTCACCTAGTGCAG” belongs 32800 fluorescence intensity (a.u.).
To “AGCTCTGGCCGCCGCTCCTTCCTCTCCCGTCATGCGCATGCGGAGTCACCTAGTGCAG” belongs 3850 fluorescence intensity (a.u.); to “TTTTATCCAGTCCGATTTTCGTCCTTGACTGCAAAACCGGCGGAGTCACCTAGTGCAG”, 3270 fluorescence intensity (a.u.); to “ATTAGATGATGTGGCGACTACGTGGCTAATTTGACTCAGTCGGAGTCACCTAGTGCAG”, 18400 fluorescence intensity (a.u.).
As for “TGCGCCGTCTGCGTCAGCGTGCCTCGTCGCAGTCGCAGGCCGGAGTCACCTAGTGCAG”, the binding signal is 6400 fluorescence intensity (a.u.).
To “TTAGACAGTGACCCATCAACACTTGGCCAACGCCAAGTCGCGGAGTCACCTAGTGCAG” belongs 3650 fluorescence intensity (a.u.).
On to “CGCGACGCGACCCGGCCCCGCGACGTGGACGCCCCGGACGCGGAGTCACCTAGTGCAG”, for which the binding signal was 4590 fluorescence intensity (a.u.).
With “ACTGACCCGTCCGTCCTCACCGTCGCACAGTGTGAGTGAGCGGAGTCACCTAGTGCAG” the figure was 3370 fluorescence intensity (a.u.); with “GTGGGTGGTTGGGCCTGTTGCAACGTGGTATAGCGTTGGACGGAGTCACCTAGTGCAG”, 4450 fluorescence intensity (a.u.); with “AATCTTATTCCGTCGGTGGTGATTTCGTCAATCTCCCAACCGGAGTCACCTAGTGCAG”, 3160 fluorescence intensity (a.u.).
To “ACTATCTTCAACTAAGAATGACGCAATTGCACCCCAAACACGGAGTCACCTAGTGCAG” belongs 5020 fluorescence intensity (a.u.); to “CTCTTCTCCTCCAAGGATGGGGAGGTGGGGATGGTGGGGACGGAGTCACCTAGTGCAG”, 3470 fluorescence intensity (a.u.); to “ATCCACATAGAGTAGCAGGTAGACCATATCAGCACCGTGGCGGAGTCACCTAGTGCAG”, 3320 fluorescence intensity (a.u.).
With “CTGTCACGCTGACATCACTCCTCTCCTCCACCATGGCTTGCGGAGTCACCTAGTGCAG” the figure was 9570 fluorescence intensity (a.u.).
With “ACAAAATTTTCATCGTCATCCACGATCCAACCACCAGCTGCGGAGTCACCTAGTGCAG”, the binding signal was 4970 fluorescence intensity (a.u.).
Take “TTGGTGGCGGAAAGCCGCGACACGTTGGCGATGACGGGGACGGAGTCACCTAGTGCAG”: the binding signal was 11200 fluorescence intensity (a.u.).
With “GAATGGTATCAGGGTGGTTGAACAAGAACAAAGGCCACATCGGAGTCACCTAGTGCAG” the figure was 3730 fluorescence intensity (a.u.).
In the case of “GATCTTGATGAGTTATACCACTTTATTGTTGATGACCTTTCGGAGTCACCTAGTGCAG”, the binding signal is 4850 fluorescence intensity (a.u.).
To “CAACCAATCAATCACATACGTGGACAACTGCAGAAAATGCCGGAGTCACCTAGTGCAG” belongs 5610 fluorescence intensity (a.u.); to “CGGCTTTGATGACTCGACGGTGAATATTAAGGAAACGCCTCGGAGTCACCTAGTGCAG”, 7140 fluorescence intensity (a.u.).
With “GCGCGCGCCCGCATCATTGCGCCATCACTCTCTCGCTCGCCGGAGTCACCTAGTGCAG” the figure was 29500 fluorescence intensity (a.u.); with “CTTAATTTCAGCTTACTGATCAGTGATCACTGAGCTAGCTCGGAGTCACCTAGTGCAG”, 5910 fluorescence intensity (a.u.).
With “TGCCTGGCATGGGATGTACACTAGAGTGCTTTGCATGGCACGGAGTCACCTAGTGCAG” the figure was 3370 fluorescence intensity (a.u.).
Turning to “GTGGTTTCGAAGTGACGTAATAGTGGGTACTTAACGTGTACGGAGTCACCTAGTGCAG”, the binding signal is 5400 fluorescence intensity (a.u.).
To “ACATTTGCTAACGTGTAGTATGTGTGTAGTGCCATGTGTTCGGAGTCACCTAGTGCAG” belongs 8150 fluorescence intensity (a.u.); to “AGTCACGTACGCACCGCTCGGCGCTCGCTAGCTGCCACCACGGAGTCACCTAGTGCAG”, 4380 fluorescence intensity (a.u.).
Regarding “CTCTTCCCTGCCATGGCTCCTCTCCTGACCCGGCCAAAGGCGGAGTCACCTAGTGCAG”, the binding signal is 3260 fluorescence intensity (a.u.).
To “GAGTTAACTATAGTGAACTTGCCACGTCAACAAAACCAGTCGGAGTCACCTAGTGCAG” belongs 23700 fluorescence intensity (a.u.); to “ATGGTGATCGGACGGCTGAGATTGCGTGGTGGTGGCGGGACGGAGTCACCTAGTGCAG”, 3680 fluorescence intensity (a.u.); to “CACAGTAAAGTACTACCTGCTTCCCTGTTTGGAACAGTCACGGAGTCACCTAGTGCAG”, 3450 fluorescence intensity (a.u.).

The record behind these values is paper PMC7819943, “Rice protein-binding microarrays: a tool to detect cis-acting elements near promoter regions in rice”.
